Results: PMC5115893
Results are given in words; binding and its absence hold for the method and conditions named. Binding seen in cells or lysates may run through a third protein. Some results given as binding are weak or reduced against the parent protein; the word gives no strength.

Sequences of proteins named here, by UniProt entry; tags and fusion partners are left off. Residues count along the entry.
UniProt Q9Y4W6, residues 67-797: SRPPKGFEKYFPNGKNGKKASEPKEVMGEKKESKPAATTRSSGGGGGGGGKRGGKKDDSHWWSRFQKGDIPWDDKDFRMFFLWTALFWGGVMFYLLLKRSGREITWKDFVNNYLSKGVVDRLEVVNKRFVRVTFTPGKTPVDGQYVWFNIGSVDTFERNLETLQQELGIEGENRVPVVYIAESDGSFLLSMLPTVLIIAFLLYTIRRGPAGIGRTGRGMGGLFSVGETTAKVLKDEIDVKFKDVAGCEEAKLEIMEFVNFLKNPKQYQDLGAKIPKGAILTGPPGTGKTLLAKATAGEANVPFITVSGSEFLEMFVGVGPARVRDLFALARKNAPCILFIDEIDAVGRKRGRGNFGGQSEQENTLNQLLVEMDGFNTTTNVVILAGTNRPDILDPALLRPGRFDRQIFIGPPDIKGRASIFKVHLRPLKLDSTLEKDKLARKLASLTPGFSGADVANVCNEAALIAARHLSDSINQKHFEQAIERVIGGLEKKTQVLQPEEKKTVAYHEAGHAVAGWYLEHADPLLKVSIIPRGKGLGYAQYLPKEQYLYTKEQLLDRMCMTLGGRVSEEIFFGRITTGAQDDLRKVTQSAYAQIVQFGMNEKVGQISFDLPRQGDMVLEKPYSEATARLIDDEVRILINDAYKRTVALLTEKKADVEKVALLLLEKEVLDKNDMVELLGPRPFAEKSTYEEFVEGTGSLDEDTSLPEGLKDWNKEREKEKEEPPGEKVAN
UniProt Q8JZQ2, residues 67-802: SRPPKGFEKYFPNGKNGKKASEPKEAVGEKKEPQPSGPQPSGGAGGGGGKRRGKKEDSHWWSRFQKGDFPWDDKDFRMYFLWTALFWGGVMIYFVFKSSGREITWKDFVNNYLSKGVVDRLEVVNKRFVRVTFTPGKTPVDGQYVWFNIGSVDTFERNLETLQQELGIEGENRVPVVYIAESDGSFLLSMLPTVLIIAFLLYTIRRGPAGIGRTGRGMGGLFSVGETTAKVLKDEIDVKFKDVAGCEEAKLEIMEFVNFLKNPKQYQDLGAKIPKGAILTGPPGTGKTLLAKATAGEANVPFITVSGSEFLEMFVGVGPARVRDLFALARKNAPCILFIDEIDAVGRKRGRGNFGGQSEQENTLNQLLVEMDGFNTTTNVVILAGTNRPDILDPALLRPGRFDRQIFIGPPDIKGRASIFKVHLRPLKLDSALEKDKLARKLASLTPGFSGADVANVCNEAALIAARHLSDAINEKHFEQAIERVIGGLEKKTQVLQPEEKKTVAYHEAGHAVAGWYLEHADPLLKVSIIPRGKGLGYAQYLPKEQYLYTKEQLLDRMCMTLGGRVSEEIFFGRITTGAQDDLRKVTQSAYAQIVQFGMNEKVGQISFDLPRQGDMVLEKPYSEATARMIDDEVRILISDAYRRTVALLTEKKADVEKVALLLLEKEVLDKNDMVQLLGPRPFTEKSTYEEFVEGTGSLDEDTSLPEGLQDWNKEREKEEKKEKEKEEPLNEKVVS

Legend:
GST-Cav-1-FL = GST-Cav-1-FL (UniProt Q03135); assay: pull-down; GST-Cav-1 fusion proteins on glutathione-agarose beads; pre-cleared lysates of NIH 3T3 cells transiently transfected with AFG3L2-myc, diluted in 10 mM Tris pH 8.0, 0.1% Tween 20; overnight at 4°C; beads washed 6 times with PBS; only the target purified
GST-Cav-1(82-101) = GST-Cav-1(82-101) (UniProt Q03135); assay: as above
[1] = target: T1, caveolin-1 (mouse (endogenous in MEFs)) (UniProt P49817); assay: co-IP; mitochondrial fractions of wild type MEFs, untreated or treated with 150 μM hydrogen peroxide for 2 hours and recovered 7 days; immunoprecipitated with anti-caveolin-1, blotted with anti-AFG3L2; 10 mM Tris pH 8.0, 0.15 M NaCl, 5 mM EDTA, 1% Triton X-100, 60 mM octyl glucoside, overnight at 4°C
T1 sequence: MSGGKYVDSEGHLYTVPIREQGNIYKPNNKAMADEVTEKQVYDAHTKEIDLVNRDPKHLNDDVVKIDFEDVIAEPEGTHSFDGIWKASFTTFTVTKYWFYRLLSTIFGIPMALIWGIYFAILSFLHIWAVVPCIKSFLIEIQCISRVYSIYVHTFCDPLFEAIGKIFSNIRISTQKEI

Row | Substance | binding (GST-Cav-1-FL) | binding (GST-Cav-1(82-101)) | binding [1]
1 | AFG3L2-myc (from UniProt Q9Y4W6 67-797) | binds | binds | 
2 | AFG3L2 (from UniProt Q8JZQ2 67-802) |  |  | binds
